In patent publication US20250381241:
For part of these data: Weaker means in comparison with the reference protein, sequence or condition of that experiment. For part of these data: Construct, isoform or probe ends are uncertain for at least one entry. For part of these data: At least one result comes from cells or an extract, where the contact may be indirect.

By UniProt entry, the sequences of proteins in these tests, tags left out. Where a name states a change or a piece, a line headed by the entry shows the natural chain unless it says otherwise.
UniProt P15976: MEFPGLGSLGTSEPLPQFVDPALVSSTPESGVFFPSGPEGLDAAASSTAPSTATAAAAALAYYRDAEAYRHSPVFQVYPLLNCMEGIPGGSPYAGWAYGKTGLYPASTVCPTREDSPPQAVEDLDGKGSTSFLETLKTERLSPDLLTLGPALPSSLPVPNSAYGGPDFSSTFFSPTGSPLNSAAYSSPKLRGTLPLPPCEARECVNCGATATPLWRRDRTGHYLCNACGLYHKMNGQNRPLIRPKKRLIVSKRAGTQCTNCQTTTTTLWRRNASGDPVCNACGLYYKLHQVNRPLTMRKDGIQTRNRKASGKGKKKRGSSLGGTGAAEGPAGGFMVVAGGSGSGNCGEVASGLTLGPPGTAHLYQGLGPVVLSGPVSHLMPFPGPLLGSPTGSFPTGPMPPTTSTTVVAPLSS

Legend:
[1] = target: HA-RIOK2 WT (Homo sapiens) (UniProt Q9BVS4); assay: activity in cells; settings: luciferase, protein in cells, protein details: N-terminal HA
[2] = target: HA-RIOK2 dTAD2 del77-90 (Homo sapiens) (UniProt Q9BVS4); assay: binding assay; settings: ChIP; comparable to WT; protein in cells; protein details: N-terminal HA
[3] = target: HA-RIOK2 dTAD1 del14-29 (Homo sapiens) (UniProt Q9BVS4); assay: binding assay; settings: ChIP; comparable to WT; protein in cells; protein details: N-terminal HA
[4] = target: HA-RIOK2 NTE (wHTH domain) (Homo sapiens) (UniProt Q9BVS4); assay: binding assay; settings: ChIP; more robust than WT; protein in cells; protein details: N-terminal HA
[5] = target: HA-RIOK2 WT (Homo sapiens) (UniProt Q9BVS4); assay: binding assay; settings: anti-HA ChIP; protein in cells; protein details: N-terminal HA
[6] = target: RIOK2 (endogenous) (Homo sapiens) (UniProt Q9BVS4); assay: binding assay; settings: ChIP-qPCR, mono- and polyclonal antibodies; protein in cells
[7] = target: HA-RIOK2 DBM (DNA-binding mutant) N50A,K51A,R54A,E55A,K58A,H59A,K60A (Homo sapiens) (UniProt Q9BVS4); assay: binding assay; settings: ChIP; significantly compromised; protein in cells; protein details: N-terminal HA
[8] = target: RIOK2 (rhRIOK2, full length) (Homo sapiens) (UniProt Q9BVS4); assay: EMSA; settings: partial but significant loss vs WT, gene of duplex shown not given, purified recombinant protein, protein details: GST, Abcam
[9] = target: GATA1 (UniProt P15976); assay: activity in cells; settings: luciferase reporter, HEK293; protein in cells
[10] = target: GATA1 (UniProt P15976); assay: binding assay; settings: ChIP with two monoclonal antibodies; protein in cells

CTAGCCAGGCCTGGTGGCACACACCTGTAGTCCCAGCTACTCAGGAGGCTGAGGCAGGAGGATCACTGCCGGGAGGCAGTGGTTGCAGTGAGCCGAGATCGTGCCACTGCACTCCAGCCTGGCAACAGAGGAGACCCTGCCTCAAAAAAAAGTGTGTGTGGATGGGGGGGGAAGGATTTCTGTGTCTGAGGACCCCTTCTGTCCTCGCAGGTTAATCCCCAGAGGCTCCATGGAGTTCCCTGGCCTGGGGTCCCTGGGGACCTCAGAGCCCCTCCCCCAGTTTGTGGATCCTGCTCTGGTGTCCTCCACACCAGAATCAGGGGTTTTCTTCCCCTCTGGGCCTGAGGGCTTGGATGCAGCAGCTTCCTCCACTGCCCCGAGCACAGCCACCGCTGCAGCTGCGGCACTGGCCTACTACAGGGACGCTGAGGCCTACAGACACTCCCCAG (double strand) [GATA1 promoter]
activity on this sequence ([1]; activation): active | binding result [2]: binds | binding result [3]: binds | binding result [4]: binds | binding result [5]: binds | binding result [6]: binds | binding result [7]: binds more weakly

GCCTTCCTTTCGTTTTGAGCCTTGGGCTTTCCTCCCACCCGGGACTGGTGCTCTTTCTCGCCGGATCTGGGCTGGGGCTCCGTGGCGTGCGGGACACCTCGTGGTGGGACTTTGGGGGGTGTCAGGCGCTGGCGGCACGCCTCACTCCCCCTTCCTCGCGCAGGGCCGTTGCCGTCTGCACCCAGACCCTGAGCCGCCGCCGCCGGCCATGGAGGTGGCGCCCGAGCAGCCGCGCTGGATGGCGCACCCGGCCGTGCTGAATGCGCAGCACCCCGACTCACACCACCCGGGCCTGGCGCACAACTACATGGAACCCGCGCAGCTGCTGCCTCCAGACGAGGTGGACGTCTTCTTCAATCACCTCGACTCGCAGGGCAACCCCTACTATGCCAACCCCGCTCACGCGCGGGCGCGCGTCTCCTACAGCCCCGCGCACG (double strand) [GATA2 promoter]
activity on this sequence ([1]; repression): active | binding result [2]: binds | binding result [3]: binds | binding result [4]: binds | binding result [5]: binds | binding result [6]: binds | binding result [7]: binds more weakly

AGGCAGTGCCTTGGCGAAGCTGTCCGCGGTCCCTGCGGCGCAGCCGGAGCGCACGGGCCCAAGAAGAAGTGGGGTTGGACCCCGCCCCGCGGGCCCCGGGGGTACTAACCCCGCGCGGGCGGCCGCGGCCCCGCCACTTGATTCTGGAGGATTTGTTCTGGGGCTGCGGCCGCGGAGTCGGGGCGGCCGCGGGCGAGCTTCGGGGCGGGAGGCGGCGGCAGCGGCACAGCCCCGCGCGGGCCCCGCCGCGGCCCAGGCAGCCGGGACAGCCACGAGGGGCGGCCGCACGCGGGGCCGCGCGCCGAGGATGCGGGACTAGCCGGGCAGGCTGCGGGCGGCCGTCGGGCCAGCGAGGCCTCGCAGCGGGCGGGCCCTGGCGAGTAGTGGCCGGGCGCCGCCCCCTGCGCCCTGAGGCCCGGGCCCCGCCGCTTCTGCTTTCCCGCTTCTCGCGGCAGCGGCGGCCGAGGAGGCGCCCGCGCCGGCCGCCCCCGGGGGAAGCCGCGCCGTCTCCGCCTGCCCGGCGCCCTGACGGCCGCTGTTATGCGTATTCCCGTAGACCCAAGCACCAGCCGCCGCTTCACACCTCCCTCCCCGGCCTTCCCCTGCGGCGGCGGCGGCGGCAAGATGGGCGAGAACAGCGGCGCGCTGAGCGCGCAGGCGGCCGTGGGGCCCGGAGGGCGCGCCCGGCCCGAGGTGCGCTCGATGGTGGACGTGCTGGCGGACCACGCAGGCGAGCTCGTGCGCACCGACAGCCCCAACTTCCTCTGCTCCGTGCTGCCCTCGCACTGGCGCTGCAACAAGACGCTGCCCGTCGCCTTCAAG (double strand) [RUNX3 promoter]
activity on this sequence ([1]; repression): active | binding result [2]: binds | binding result [3]: binds | binding result [4]: binds | binding result [5]: binds | binding result [6]: binds | binding result [7]: binds more weakly

CTGCTGCAGGGCTGAGACCCTGGGAGGTCCCAACCCAGGCAAATTGAACGCCAGGCTAATTTGAAGACCCAACTCCCAGCCCTCCCCTTCACCGGAGGACAGAGCTCTAGCTGGCCTGGGCCCCCACCTGATAGCAGCCTCCAACGTCTGGGGTGTCTGATAATCACAGCCTCAGAGTTCACGAGGCAGCCGAGGAAGAGGAGGCTTGAGGCCCAGGGTGGGCACCAGCCAGCCATGGCCACAGCCGAGACCGCCTTGCCCTCCATCAGCACACTGACCGCCCTGGGCCCCTTCCCGGACACACAGGATGACTTCCTCAAG (double strand) [KLF1 promoter]
activity on this sequence ([1]; activation): active | binding result [2]: binds | binding result [3]: binds | binding result [5]: binds | binding result [6]: binds

CCGGGCGCCGCCTTTTGCGCCCTGAGGCCC (double strand) [RUNX3-Mutant duplex]
binding result ([8]; variant of RUNX3-WT duplex): binds more weakly

CACGTGTCACCTTAAACTCCCACCCCAACCAGCGCAGGCGCACTTCGAAGCCTCCTAGACCAACCTAAGAGAAGTACTGAGCAAGCGCATGAGTTCCATTAACCACGCCCTCCGGAGCTGCCGGAGCAGGCGCAATTAGGAGTAGAGGGCGTGCTTGTGTGATTACAGTCCACTTTACCTTTAACAGATTTGGTTGTCTGGACTCTAGCTCAGGTTCTTTTACCCCTGTCTTGTTGGAAGTCACTTTGCCTAGAGTAGAAGTTGTTTGCGGGAAAAATTTGCTCCTCCCATTAAGTAACCACTTTGCTCTCTGAGGCGGAACGTGTCATTGAGGCAGCAAGTCCTGACAGATATGGAAAAAAAAAGGCACATTGTAGAGAATATCTACACTCCGCCAACTCAGTCACAACGCAAAAATTACACAAAAATAAAACGTTCACTTGTTACATACTATGTGTTTCATAAGACATACAAGTAGTTTTATTTTCCTATATCAATGAGAACAGCACTTCTAACTATTAACAAGGACCTATACTAAGACGCAGCGCGTGCGCGAGCCATCTGGCGCTGTAAAGCGCTTAGAGGCTGGAATAACGACCTGCCTTACGCTTTGCGGCTGTCGTCGGAGAGGCATCTGGGTTCGGACTGGGGCCGCCATGGGGAAAGTGAATGTGGCCAAGTTGCGTTACATGAGCCGAGATGACTTCAGGGTCTTGACCGCGGTAAGAAACCCGCCGTTCCTGTTCTCCCTTCCCCTTAACACTGTGTGACCTCTTCCTGTTCCTGCAAGTTTTCTGGGATCTGAGCAGGCACACTCTGGGACCCGGGACGTGGCAGAAGCTGGGAATGGAGAAGAGAGCATTCAGAAAGTCGGATTTTTAAAAAGGTTTTGTTTGGGAGCTTACCTTCCCCCAGATAGAGCAAAGGTCCCGTCTTCTAATAATTGTTTTCTTTTCTGCTGCTATTCGCTTTGCGCTGAAGAGAAACGCTTGCATCTCTGTGGCCTGGAAACTTCTCTGATCCTGAGCTTCCGACCAGCTGTGAAAG (double strand) [RIOK2 promoter]
activity on this sequence [9]: active | binding result [10]: binds

ACACACCTGTAGTTTTAGCTACTCAGGAGG (double strand) [GATA1-Mutant duplex]
binding result ([8]; variant of GATA1-WT duplex): binds more weakly

AGAGACTTCCTGTATGTAGCGCAAGAGATTTATGCAAACGGGTTGGGGCGGTGATGTCACCCCAAGGGGACTATCTCCCAGCGGCAGGCCCTTCGATAAAATCAGGAACTTGTGCTGGCCCTGCAATGTCAAGGGAGGGGGCTCACCCAGGGCTCCTGTAGCTCAGGGGGCAGGCCTGAGCCCTGCACCCGCCCCACGACCGTCCAGCCCCTGACGGGGCACCCCATCCTGAGGGGCTCTGCATTGGCCCCCACCGAGGCAGGGGATCTGACCGACTCGGAGCCCGGCTGGATGTTACAGGCGTGCAAAATGGAAGGGTTTCCCCTCGTCCCCCCT (double strand) [SPI1 promoter]
activity on this sequence ([1]; repression): active | binding result [4]: binds | binding result [5]: binds | binding result [6]: binds | binding result [7]: binds more weakly

AAGGGGACTATCTTTTAGCGGCAGGCCCTT (double strand) [SPI1-Mutant duplex]
binding result ([8]; variant of SPI1-WT duplex): binds more weakly
